# In patent US5856435A (Rhone-Poulenc Rorer SA, priority 1994, dated 1999):
# HELM strings list residues between dots; [ac] is acetyl, [am] amide, other brackets name non-standard units.
# Key:
# [1] = general procedure: Fmoc solid-phase peptide synthesis; HMP resin; details: whole synthesis, TFA salt
# [2] = general procedure: Fmoc solid-phase peptide synthesis; HMP resin (Applied Biosystem); details: whole synthesis, TFA salt
Substance,final purity (method not given) [1],final purity (method not given) [2]
PEPTIDE1{L.K.K.L.L.K.K.L.L.K.K.L.L.K.K.L.L.K.K.L.L.K.K.L.L.K.K.L.L.K.K.L.L.K.K.L.L.K.K.L}$$$$V2.0,greater than 95%,
PEPTIDE1{L.K.L.K.L.K.L.K.L.K.L.K.L.K.L.K.L.K.L.K.L.K.L.K.L.K.L.K.L.K.L.K.L.K.L.K.L.K.L.K}$$$$V2.0,,greater than 90%
